PubChem BioAssay AID1224826 – NIAID, 2016
Assay: 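Genes that change LPS-induced Tnf promoter activity in mouse macrophages when knocked down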 (primary screen). System: RAW264.7 G9 macrophages from mouse bearing reporters for p65 (GFP) and the Tnf promoter (mCherry). Knock-down reagent: siRNA pool against mouse genes, 100 nM. Timing: 16 h of LPS stimulation, after 2 days of siRNA transfection. Challenge: bacterial lipopolysaccharide (Salmonella minnesota R595), 10 ng/ml. Detection: 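Imaged Tnf reporter mCherry in nuclei, minus background, normalised per plate to the median and expressed as robust z-scores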. Scale: Tnf reporter robust z-score: higher = stronger Tnf promoter reporter signal after LPS. Hit rule: 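a well counts as active at a score of -1.3 or below (Tlr4 knock-down control median) or above 3 (raised signal); controls and wells holding fewer than 50 cells are excluded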. Calls: active = Tnf reporter clearly lowered or raised; inactive = no clear change in Tnf reporter.
The deposit covers about 17,000 reagents; shown is an unselected part. Over the whole deposit, about 1,110 (6.6%) got an active call. 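Active means lowered or raised reporter signal; replicate intensities are raw and not normalised per plate.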 Further read-outs or replicates are left out here.

gene	Tnf reporter robust z-score	fewer than 50 cells in well	call
Gab2 (growth factor receptor bound protein 2-associated protein 2)	-0.43	enough cells in well	inactive
Sox11 (SRY (sex determining region Y)-box 11)	4.4	enough cells in well	active
Or7g21 (olfactory receptor family 7 subfamily G member 21)	1.07	enough cells in well	inactive
Treml4 (triggering receptor expressed on myeloid cells-like 4)		fewer than 50 cells per well; well left out of calls	inactive
Rfxank (regulatory factor X-associated ankyrin-containing protein)	-0.34	enough cells in well	inactive
Junb (jun B proto-oncogene, AP-1 transcription factor subunit)	0.04	enough cells in well	inactive
Limk2 (LIM domain kinase 2)	-0.42	enough cells in well	inactive
Tmem108 (transmembrane protein 108)	-0.88	enough cells in well	inactive
Gzmg (granzyme G)	1.05	enough cells in well	inactive
Gm9758 (predicted gene 9758)	0.44	enough cells in well	inactive
Tmem50b (transmembrane protein 50B)	-0.67	enough cells in well	inactive
1700049L16Rik (RIKEN cDNA 1700049L16 gene)	-1.01	enough cells in well	inactive
Vwc2l (von Willebrand factor C domain-containing protein 2-like)	0.25	enough cells in well	inactive
Pirb (paired Ig-like receptor B)	0.89	enough cells in well	inactive
Chtf8 (CTF8, chromosome transmission fidelity factor 8)	0.61	enough cells in well	inactive
Gtpbp6 (GTP binding protein 6 (putative))	-0.21	enough cells in well	inactive
Rsph6a (radial spoke head 6 homolog A (Chlamydomonas))		fewer than 50 cells per well; well left out of calls	inactive
Isyna1 (myo-inositol 1-phosphate synthase A1)	0.61	enough cells in well	inactive
Stk31 (serine threonine kinase 31)	0.76	enough cells in well	inactive
Pax1 (paired box 1)	-1.13	enough cells in well	inactive
Trap1 (TNF receptor-associated protein 1)	-0.01	enough cells in well	inactive
Plin5 (perilipin 5)		fewer than 50 cells per well; well left out of calls	inactive
AI837181 (expressed sequence AI837181)	2.84	enough cells in well	inactive
Zfp287 (zinc finger protein 287)	-0.32	enough cells in well	inactive
